In article PMC7596556:
These are yes or no findings as the source states them, for the method shown. In cells and extracts the contact can be indirect. A result given as binding can be weak or reduced; the word gives no strength. Tags and fused reporters may be left off the sequences shown.

Chains of the proteins cited; added tags and fusions are not shown. Lines headed by an entry give the natural chain unless they say otherwise; changes in a name come on top.
UniProt P03372: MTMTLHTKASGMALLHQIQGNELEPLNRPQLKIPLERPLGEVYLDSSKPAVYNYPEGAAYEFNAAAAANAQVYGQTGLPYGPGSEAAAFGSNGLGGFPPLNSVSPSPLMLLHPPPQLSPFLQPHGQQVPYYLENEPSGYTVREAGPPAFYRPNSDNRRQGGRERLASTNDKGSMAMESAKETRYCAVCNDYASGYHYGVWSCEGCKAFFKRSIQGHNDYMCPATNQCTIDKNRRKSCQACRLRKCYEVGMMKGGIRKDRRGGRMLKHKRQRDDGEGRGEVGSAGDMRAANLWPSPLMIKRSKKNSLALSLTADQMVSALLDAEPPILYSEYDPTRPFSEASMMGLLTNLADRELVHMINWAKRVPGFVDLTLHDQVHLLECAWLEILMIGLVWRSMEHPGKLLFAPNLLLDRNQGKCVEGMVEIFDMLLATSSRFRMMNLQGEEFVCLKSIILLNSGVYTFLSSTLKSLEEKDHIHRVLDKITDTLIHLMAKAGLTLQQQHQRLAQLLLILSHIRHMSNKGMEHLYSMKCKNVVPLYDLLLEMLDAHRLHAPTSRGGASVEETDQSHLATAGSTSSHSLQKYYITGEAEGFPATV

Target: T1, GST-TNPO2 (Transportin-2) (human) (UniProt O14787)
T1 sequence: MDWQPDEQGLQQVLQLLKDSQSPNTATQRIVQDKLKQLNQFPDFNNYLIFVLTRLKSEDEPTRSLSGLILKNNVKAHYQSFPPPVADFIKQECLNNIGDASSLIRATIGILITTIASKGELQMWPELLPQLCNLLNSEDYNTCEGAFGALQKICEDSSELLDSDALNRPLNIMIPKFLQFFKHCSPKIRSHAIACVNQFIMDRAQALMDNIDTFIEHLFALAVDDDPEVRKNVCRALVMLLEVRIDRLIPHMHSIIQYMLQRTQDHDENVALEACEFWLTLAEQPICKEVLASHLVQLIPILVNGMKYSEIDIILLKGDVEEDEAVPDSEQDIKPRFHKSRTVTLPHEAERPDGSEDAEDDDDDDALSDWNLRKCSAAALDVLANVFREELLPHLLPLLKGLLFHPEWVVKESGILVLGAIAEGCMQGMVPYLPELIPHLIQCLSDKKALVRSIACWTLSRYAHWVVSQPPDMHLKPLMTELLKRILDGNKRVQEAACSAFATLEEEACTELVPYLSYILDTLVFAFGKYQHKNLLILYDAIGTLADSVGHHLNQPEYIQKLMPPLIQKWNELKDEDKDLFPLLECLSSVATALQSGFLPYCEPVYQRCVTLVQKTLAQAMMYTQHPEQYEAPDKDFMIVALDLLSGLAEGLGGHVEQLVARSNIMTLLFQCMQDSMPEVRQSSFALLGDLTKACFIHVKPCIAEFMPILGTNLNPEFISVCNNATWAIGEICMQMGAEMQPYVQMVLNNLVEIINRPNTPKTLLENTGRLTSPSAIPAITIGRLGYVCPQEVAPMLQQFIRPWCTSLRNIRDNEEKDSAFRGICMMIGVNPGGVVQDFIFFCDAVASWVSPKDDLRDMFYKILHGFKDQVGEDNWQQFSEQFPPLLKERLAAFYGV
Assay: pull-down; 50 pmol GST fusion protein on Glutathione Sepharose 4B mixed with lysate of transfected HeLa cells; cells untreated or treated with 10 nM E2; lysis buffer 20 mM HEPES/NaOH pH 7.3, 150 mM NaCl, 5 mM MgCl2, 0.05% Tween-20; western blot for HA; only the target purified

| binding | Substance |
| --- | --- |
| binds | 3 × HA-ERαΔ1-mNLS (from UniProt P03372) (domain or fragment) |
| binds weakly | 3 × HA-ERαΔ2-mNLS (from UniProt P03372) (domain or fragment) |
